Source: PubChem BioAssay AID1259308 (NCATS, 2017)

Purpose: 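Genes whose loss raises luciferase production in HEK293 cells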 (primary screen)
Cell system: human HEK293 embryonic kidney cells stably expressing firefly luciferase (HEK-CMV-Luc2-Hygro)
Reagents: single siRNA against human genes, 0.8 pmol siRNA per well
Timing: 72 h
Read-out: 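Luciferase light (ONE-Glo) measured on one replicate plate set and viability (CellTiter-Glo) on the other, scaled to a negative control siRNA, with robust z-scores and luciferase per cell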
Scale: total luciferase, z-score and total luciferase, % of control: higher = more reporter protein produced
Call rule: 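Active when the median/MAD z-score for overall luciferase is greater than 3; a gene was taken forward for validation with new siRNAs if at least two of its three siRNAs passed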
Meaning of the calls: active = raised luciferase; inactive = no rise
This is one part, drawn at random, of about 59,000 deposited reagents. In the full data, about 1,510 (2.6%) got an active call. 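Calls use total luciferase alone and ignore viability, so some active siRNAs may act by altering cell number.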 A number with no mark means an inactive call. Reagents against one gene are numbered here. Not all columns of the deposit are shown.

SYNDIG1L (synapse differentiation inducing 1 like) #1 gave total luciferase, z-score -0.101; total luciferase, % of control 79.9.
After knock-down of SYNDIG1L (synapse differentiation inducing 1 like) #2, the screen gave total luciferase, z-score 2.05; total luciferase, % of control 123.
With knock-down of SYNDIG1L (synapse differentiation inducing 1 like) #3, the record shows total luciferase, z-score -0.738; total luciferase, % of control 67.2.
SYNDIG1L (synapse differentiation inducing 1 like) #4 showed total luciferase, z-score 2.53; total luciferase, % of control 132.
With knock-down of SYNDIG1L (synapse differentiation inducing 1 like) #5 the results were total luciferase, z-score -1.35; total luciferase, % of control 55.1.
With knock-down of SYNDIG1L (synapse differentiation inducing 1 like) #6, the screen gave total luciferase, z-score 3.74 (active); total luciferase, % of control 156.
Against CRNDE (colorectal neoplasia differentially expressed) #1 the deposit lists total luciferase, z-score 0.878; total luciferase, % of control 99.3.
For CRNDE (colorectal neoplasia differentially expressed) #2 the deposit lists total luciferase, z-score -0.396; total luciferase, % of control 74.
CRNDE (colorectal neoplasia differentially expressed) #3 gave total luciferase, z-score 0.0407; total luciferase, % of control 82.7.
For CRNDE (colorectal neoplasia differentially expressed) #4, the entry reads total luciferase, z-score -0.0139; total luciferase, % of control 81.6.
CRNDE (colorectal neoplasia differentially expressed) #5 showed total luciferase, z-score -1.06; total luciferase, % of control 60.9.
Silencing of CRNDE (colorectal neoplasia differentially expressed) #6 came out at: total luciferase, z-score 2.43; total luciferase, % of control 130.

Copied from the listing for reference:
SYNDIG1L (synapse differentiation inducing 1 like) #2 → total luciferase, z-score: 2.05; total luciferase, % of control: 123
SYNDIG1L (synapse differentiation inducing 1 like) #3 → total luciferase, z-score: -0.738; total luciferase, % of control: 67.2
SYNDIG1L (synapse differentiation inducing 1 like) #4 → total luciferase, z-score: 2.53; total luciferase, % of control: 132

Continued.
GARS1 (glycyl-tRNA synthetase 1) #1 scored total luciferase, z-score 0.728; total luciferase, % of control 96.4.
Depletion of GARS1 (glycyl-tRNA synthetase 1) #2 resulted in: total luciferase, z-score 2.07; total luciferase, % of control 123.
After knock-down of GARS1 (glycyl-tRNA synthetase 1) #3, the screen gave total luciferase, z-score -2.14; total luciferase, % of control 39.3.
Against LZIC (leucine zipper and CTNNBIP1 domain containing) #1, the entry reads total luciferase, z-score -1.04; total luciferase, % of control 61.1.
With knock-down of LZIC (leucine zipper and CTNNBIP1 domain containing) #2 the results were total luciferase, z-score 2.39; total luciferase, % of control 129.
Silencing of LZIC (leucine zipper and CTNNBIP1 domain containing) #3 came out at: total luciferase, z-score 0.645; total luciferase, % of control 94.7.
GRXCR1 (glutaredoxin and cysteine rich domain containing 1) #1 scored total luciferase, z-score 1.53; total luciferase, % of control 112.
For GRXCR1 (glutaredoxin and cysteine rich domain containing 1) #2, the entry reads total luciferase, z-score -0.841; total luciferase, % of control 65.2.
GRXCR1 (glutaredoxin and cysteine rich domain containing 1) #3 scored total luciferase, z-score -3.26; total luciferase, % of control 17.1.
SLC25A39 #1 showed total luciferase, z-score 0.165; total luciferase, % of control 85.2.
After knock-down of SLC25A39 #2 the results were total luciferase, z-score 0.87; total luciferase, % of control 99.2.
Silencing of SLC25A39 #3 came out at: total luciferase, z-score 1.33; total luciferase, % of control 108.
With knock-down of KIFC3 (kinesin family member C3) #1, the record shows total luciferase, z-score 0.638; total luciferase, % of control 94.6.
Knock-down of KIFC3 (kinesin family member C3) #2 came out at: total luciferase, z-score -0.342; total luciferase, % of control 75.1.
Knock-down of KIFC3 (kinesin family member C3) #3 gave: total luciferase, z-score -0.9; total luciferase, % of control 64.
For RAET1E (retinoic acid early transcript 1E) #1, the entry reads total luciferase, z-score 1.25; total luciferase, % of control 107.
For RAET1E (retinoic acid early transcript 1E) #2, the values are total luciferase, z-score -1.88; total luciferase, % of control 44.5.
Silencing of RAET1E (retinoic acid early transcript 1E) #3 gave: total luciferase, z-score -0.247; total luciferase, % of control 77.
Depletion of PTX4 (pentraxin 4) #1 came out at: total luciferase, z-score 0.484; total luciferase, % of control 91.5.
For PTX4 (pentraxin 4) #2 the deposit lists total luciferase, z-score -1.94; total luciferase, % of control 43.4.
PTX4 (pentraxin 4) #3 showed total luciferase, z-score -0.87; total luciferase, % of control 64.6.
